According to patent US20110195021A1 (IMMUNOGEN, published 2011):
No constants are given. Whether binding was seen depends on the method and setting. Some results given as binding are weak or reduced against the parent protein; the word gives no strength.

Target: T1, human CD20 (human, UniProt P11836 1-297)
T1 construct: whole, on cells; also called wild type CD20; MS4A1
T1 sequence (looked up): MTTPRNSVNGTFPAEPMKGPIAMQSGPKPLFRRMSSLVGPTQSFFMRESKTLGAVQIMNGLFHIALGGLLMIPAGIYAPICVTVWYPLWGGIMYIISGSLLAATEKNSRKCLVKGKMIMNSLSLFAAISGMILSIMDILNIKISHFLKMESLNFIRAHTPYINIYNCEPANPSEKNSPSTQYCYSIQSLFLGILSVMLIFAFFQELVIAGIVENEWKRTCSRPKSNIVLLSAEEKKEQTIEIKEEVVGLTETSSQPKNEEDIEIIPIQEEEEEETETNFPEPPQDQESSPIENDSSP
Experiment: flow cytometry on BJAB cells

B1: chCD20-7 (antibody, V domains shown)
VH: QLQLVQSGPELKKPGETVKISCKASGYSFTNYGMNWVKQAPGKGLKWMGWINTYTGEPSYADDFKGRFAFSLETSASTAYLQISNLKNEDTATYFCARGAYYRYDLGMDYWGQGTSVTVSS
VL: DIVLTQSPASLAVSLGQRATISCRASGSVDSFGNSFMHWYQQKPGQPPKLLIYRASNLESGVPARFSGGGSRTDFTLTINPVEADDIATYFCQQSYEDPFTFGAGTKLELMR
notes: Chimeric antibody: CD20-7 variable regions cloned into pchCD20-7HCN and pchCD20-7LCZ and expressed in HEK-293T cells; also called chimeric CD20-7
B1 was tested, and the binding was “binds”.
